Binding data for three substances are collected here from paper PMC9439681.

Sequences of proteins named here, by UniProt entry; tags and fusion partners are left off.
UniProt Q9Y230: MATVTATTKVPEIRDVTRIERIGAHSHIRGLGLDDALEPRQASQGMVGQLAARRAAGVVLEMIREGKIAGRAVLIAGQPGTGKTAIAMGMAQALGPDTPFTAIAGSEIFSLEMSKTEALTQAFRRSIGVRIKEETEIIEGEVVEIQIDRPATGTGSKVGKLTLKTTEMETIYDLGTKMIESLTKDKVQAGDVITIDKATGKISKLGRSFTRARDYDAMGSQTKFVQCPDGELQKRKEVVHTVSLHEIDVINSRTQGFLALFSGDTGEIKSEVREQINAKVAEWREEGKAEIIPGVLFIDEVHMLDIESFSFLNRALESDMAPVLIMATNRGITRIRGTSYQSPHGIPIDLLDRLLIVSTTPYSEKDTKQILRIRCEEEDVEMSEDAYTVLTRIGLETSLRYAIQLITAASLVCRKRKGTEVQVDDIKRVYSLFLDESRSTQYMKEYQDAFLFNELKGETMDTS
UniProt Q02248: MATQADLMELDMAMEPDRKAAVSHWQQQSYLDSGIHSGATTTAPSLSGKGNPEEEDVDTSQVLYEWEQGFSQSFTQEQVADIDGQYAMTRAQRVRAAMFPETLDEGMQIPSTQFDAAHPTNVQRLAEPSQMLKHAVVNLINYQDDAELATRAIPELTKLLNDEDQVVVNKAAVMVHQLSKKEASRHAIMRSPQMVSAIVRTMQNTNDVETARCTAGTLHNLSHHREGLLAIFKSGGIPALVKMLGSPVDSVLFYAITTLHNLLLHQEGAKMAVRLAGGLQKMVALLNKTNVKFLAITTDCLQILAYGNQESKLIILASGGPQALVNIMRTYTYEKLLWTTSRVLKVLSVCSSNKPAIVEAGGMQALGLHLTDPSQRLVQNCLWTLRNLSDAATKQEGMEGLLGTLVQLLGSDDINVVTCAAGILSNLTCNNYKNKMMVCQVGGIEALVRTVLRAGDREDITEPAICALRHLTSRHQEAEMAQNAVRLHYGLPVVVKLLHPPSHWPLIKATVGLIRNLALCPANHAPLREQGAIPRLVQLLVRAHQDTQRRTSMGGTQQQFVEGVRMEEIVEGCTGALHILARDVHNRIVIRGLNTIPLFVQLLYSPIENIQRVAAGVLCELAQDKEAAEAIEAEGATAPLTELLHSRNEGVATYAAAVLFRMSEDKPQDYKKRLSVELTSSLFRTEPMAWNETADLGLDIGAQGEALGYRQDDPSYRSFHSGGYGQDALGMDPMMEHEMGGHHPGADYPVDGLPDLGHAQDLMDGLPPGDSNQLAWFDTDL
UniProt Q16665: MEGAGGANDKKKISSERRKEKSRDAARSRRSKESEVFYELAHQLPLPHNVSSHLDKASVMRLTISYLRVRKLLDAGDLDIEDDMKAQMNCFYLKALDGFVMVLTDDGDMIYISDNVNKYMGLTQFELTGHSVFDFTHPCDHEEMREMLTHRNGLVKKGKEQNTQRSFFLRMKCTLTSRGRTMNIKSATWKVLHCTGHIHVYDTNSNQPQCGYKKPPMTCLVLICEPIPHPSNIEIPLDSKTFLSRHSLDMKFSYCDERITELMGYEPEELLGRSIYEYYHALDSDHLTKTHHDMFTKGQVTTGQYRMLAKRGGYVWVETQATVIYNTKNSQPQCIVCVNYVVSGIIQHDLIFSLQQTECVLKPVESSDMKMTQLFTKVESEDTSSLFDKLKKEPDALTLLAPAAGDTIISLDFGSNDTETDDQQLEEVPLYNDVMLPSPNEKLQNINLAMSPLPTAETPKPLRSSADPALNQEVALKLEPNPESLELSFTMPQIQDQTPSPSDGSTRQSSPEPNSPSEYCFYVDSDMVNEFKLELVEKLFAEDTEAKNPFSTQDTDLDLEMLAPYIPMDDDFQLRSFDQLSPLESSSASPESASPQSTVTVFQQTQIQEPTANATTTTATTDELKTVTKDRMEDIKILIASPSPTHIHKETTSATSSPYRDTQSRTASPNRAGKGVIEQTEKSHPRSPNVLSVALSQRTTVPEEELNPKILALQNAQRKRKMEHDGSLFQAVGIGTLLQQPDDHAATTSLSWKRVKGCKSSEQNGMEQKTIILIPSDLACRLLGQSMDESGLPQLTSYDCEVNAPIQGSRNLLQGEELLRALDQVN
UniProt Q9WTM5: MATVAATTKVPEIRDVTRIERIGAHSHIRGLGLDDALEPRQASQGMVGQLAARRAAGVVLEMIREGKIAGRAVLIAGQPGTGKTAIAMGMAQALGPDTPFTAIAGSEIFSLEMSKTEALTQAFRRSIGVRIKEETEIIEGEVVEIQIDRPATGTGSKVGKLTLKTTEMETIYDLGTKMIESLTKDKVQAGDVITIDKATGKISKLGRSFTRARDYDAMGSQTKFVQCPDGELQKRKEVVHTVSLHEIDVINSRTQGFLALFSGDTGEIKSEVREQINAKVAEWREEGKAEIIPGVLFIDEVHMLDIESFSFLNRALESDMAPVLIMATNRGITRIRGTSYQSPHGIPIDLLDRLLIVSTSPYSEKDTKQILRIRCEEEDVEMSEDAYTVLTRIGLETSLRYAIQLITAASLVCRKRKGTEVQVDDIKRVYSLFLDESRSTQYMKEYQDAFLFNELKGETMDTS
UniProt P35222: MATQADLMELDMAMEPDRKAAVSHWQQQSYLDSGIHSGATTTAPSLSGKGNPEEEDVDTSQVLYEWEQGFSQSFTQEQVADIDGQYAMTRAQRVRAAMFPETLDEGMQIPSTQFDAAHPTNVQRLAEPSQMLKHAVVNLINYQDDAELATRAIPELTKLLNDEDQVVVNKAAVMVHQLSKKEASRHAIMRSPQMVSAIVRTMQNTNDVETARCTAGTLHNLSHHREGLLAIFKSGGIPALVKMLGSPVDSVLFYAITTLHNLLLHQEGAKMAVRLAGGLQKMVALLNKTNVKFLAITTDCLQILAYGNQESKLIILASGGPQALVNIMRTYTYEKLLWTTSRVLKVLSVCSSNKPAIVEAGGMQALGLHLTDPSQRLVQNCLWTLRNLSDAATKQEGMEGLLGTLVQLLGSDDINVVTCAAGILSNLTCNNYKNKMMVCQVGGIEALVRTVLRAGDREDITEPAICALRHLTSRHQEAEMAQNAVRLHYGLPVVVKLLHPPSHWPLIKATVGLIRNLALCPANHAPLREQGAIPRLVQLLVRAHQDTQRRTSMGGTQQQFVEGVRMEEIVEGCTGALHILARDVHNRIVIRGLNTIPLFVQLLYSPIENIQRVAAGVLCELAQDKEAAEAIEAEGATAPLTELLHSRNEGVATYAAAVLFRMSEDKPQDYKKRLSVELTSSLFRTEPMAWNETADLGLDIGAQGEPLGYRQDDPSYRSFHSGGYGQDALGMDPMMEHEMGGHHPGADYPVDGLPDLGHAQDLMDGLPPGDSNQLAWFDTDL

Results are given in words; binding and its absence hold for the method and conditions named. In cells and extracts the contact can be indirect. Some results given as binding are weak or reduced against the parent protein; the word gives no strength.

Assay [1] concerns the target RUVBL2 (human (endogenous in A549)) (UniProt Q9Y230). Description: co-IP; A549 lysates immunoprecipitated with RUVBL2 antibody (Dynabeads Co-IP kit), blotted for β-catenin and HIF1-α; cells cultured under hypoxic conditions (1% O2) or ambient O2.
The target in assay [2] is β-catenin (mouse (endogenous in KP tumor-propagating cells)) (UniProt Q02248). Description: proximity ligation; RUVBL2-β-catenin proximity ligation in tumor-propagating cells (TPCs), treated with vehicle or EHMT2 inhibitor; DAPI counterstain.

On to HIF1-α (from UniProt Q16665 1-826), for which the binding entry in assay [1] is “binds”. Take RUVBL2 (from UniProt Q9WTM5 1-463): the binding entry in assay [2] was “binds”.

On to β-catenin (from UniProt P35222 1-781), for which the binding entry in assay [1] is “binds”.
